Assay results taken from PMC11347226.
These are yes or no findings as the source states them, for the method shown. Binding seen in cells or lysates may run through a third protein. Some results given as binding are weak or reduced against the parent protein; the word gives no strength.

Chains of the proteins cited; added tags and fusions are not shown. Lines headed by an entry give the natural chain unless they say otherwise; changes in a name come on top. A line that says so, or that is headed by a name, gives the form on record, which may keep a tag or linker.
UniProt P01108: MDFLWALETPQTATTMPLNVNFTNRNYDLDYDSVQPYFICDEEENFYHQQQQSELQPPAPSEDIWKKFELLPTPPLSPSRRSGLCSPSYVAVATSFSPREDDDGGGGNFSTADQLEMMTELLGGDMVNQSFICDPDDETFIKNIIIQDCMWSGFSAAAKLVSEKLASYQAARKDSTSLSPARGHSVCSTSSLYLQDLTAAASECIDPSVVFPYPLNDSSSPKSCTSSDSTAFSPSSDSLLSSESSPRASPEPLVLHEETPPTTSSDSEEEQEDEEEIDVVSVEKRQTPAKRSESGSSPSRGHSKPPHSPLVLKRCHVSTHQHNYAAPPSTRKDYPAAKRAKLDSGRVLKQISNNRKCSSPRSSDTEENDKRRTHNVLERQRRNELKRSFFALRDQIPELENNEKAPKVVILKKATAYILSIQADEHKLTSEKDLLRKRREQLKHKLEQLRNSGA
UniProt Q9Y265: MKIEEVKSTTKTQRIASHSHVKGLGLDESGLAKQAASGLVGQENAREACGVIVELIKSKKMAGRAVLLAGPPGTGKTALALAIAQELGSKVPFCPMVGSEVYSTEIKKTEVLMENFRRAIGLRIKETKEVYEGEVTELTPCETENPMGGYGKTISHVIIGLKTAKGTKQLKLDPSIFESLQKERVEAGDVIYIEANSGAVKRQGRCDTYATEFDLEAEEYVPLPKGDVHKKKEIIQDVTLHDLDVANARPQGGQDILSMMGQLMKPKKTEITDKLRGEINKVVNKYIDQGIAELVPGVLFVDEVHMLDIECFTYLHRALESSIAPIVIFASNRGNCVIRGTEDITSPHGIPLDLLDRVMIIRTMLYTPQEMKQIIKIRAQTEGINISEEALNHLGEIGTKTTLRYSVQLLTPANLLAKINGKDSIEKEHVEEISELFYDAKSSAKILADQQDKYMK
RUVBL1^Δ94-118 (Q9Y265, form named): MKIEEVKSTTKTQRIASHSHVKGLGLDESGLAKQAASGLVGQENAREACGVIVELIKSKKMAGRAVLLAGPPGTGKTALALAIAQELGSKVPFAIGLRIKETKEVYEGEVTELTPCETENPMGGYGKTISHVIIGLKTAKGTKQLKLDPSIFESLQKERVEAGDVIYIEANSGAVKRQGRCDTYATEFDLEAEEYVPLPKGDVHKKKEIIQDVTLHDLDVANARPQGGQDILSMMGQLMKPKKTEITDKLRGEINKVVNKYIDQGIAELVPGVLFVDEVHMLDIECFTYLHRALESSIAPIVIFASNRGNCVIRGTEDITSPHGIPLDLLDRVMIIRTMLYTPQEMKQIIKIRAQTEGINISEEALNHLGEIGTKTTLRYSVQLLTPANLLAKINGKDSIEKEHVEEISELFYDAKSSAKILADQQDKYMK
RUVBL1^Δ102-107 (Q9Y265, form named): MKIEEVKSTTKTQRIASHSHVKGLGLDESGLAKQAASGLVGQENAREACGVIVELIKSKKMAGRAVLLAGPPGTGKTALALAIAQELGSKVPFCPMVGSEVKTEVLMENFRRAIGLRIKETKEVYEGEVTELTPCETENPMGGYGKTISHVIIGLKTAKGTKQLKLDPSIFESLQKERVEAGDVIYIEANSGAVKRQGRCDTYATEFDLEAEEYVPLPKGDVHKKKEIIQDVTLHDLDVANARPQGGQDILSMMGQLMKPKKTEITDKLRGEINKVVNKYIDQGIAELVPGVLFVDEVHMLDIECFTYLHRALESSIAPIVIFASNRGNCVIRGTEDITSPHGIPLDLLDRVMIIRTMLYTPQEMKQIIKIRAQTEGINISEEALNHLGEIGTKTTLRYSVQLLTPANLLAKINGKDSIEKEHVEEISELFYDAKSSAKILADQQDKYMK

Target: MYC (UniProt P01108)
Experiment: co-IP; co-immunoprecipitation in KPC cells expressing RUVBL1 variants; which partner was precipitated is not told

binding | Substance
binds | RUVBL1^WT (from UniProt Q9Y265 1-456) (enzyme)
no binding | RUVBL1^Δ94-118 (from UniProt Q9Y265 1-456) (enzyme)
no binding | RUVBL1^Δ102-107 (from UniProt Q9Y265 1-456) (enzyme)
